In paper PMC3567178:
Results are given in words; binding and its absence hold for the method and conditions named. In cells and extracts the contact can be indirect. Some binding calls cover weakened binding; strength is not graded here. Sequences can lack the tags named with a protein.

T1: Yemanuclein (Drosophila (endogenous in ovaries)) (UniProt P25992)
T1 sequence: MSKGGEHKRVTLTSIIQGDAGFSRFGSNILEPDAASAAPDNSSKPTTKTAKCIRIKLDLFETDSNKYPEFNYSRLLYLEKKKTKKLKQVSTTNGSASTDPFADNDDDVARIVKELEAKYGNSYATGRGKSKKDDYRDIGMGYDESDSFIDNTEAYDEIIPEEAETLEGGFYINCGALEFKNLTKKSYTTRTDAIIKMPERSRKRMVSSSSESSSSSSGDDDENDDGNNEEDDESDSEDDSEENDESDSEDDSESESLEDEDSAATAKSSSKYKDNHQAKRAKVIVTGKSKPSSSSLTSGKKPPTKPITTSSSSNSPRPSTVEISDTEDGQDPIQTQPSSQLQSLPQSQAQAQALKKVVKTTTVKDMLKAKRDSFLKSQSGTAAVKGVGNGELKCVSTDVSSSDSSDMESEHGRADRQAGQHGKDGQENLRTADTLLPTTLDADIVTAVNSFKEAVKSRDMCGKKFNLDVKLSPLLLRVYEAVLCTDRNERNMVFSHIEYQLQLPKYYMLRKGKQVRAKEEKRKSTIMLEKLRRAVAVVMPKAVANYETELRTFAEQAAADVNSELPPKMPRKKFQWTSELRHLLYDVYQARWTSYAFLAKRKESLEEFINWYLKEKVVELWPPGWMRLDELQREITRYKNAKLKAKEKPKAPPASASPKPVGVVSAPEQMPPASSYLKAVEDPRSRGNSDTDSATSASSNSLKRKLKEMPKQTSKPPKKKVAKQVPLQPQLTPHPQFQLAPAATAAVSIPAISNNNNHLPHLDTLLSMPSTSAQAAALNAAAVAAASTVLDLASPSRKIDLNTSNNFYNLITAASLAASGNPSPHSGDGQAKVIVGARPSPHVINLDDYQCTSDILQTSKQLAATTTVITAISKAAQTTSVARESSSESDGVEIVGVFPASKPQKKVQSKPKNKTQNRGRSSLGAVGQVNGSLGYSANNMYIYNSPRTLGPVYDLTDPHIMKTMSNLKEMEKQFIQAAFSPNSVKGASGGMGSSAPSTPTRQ

T2: HIRA-Flag (Drosophila) (UniProt O17468)
T2 sequence: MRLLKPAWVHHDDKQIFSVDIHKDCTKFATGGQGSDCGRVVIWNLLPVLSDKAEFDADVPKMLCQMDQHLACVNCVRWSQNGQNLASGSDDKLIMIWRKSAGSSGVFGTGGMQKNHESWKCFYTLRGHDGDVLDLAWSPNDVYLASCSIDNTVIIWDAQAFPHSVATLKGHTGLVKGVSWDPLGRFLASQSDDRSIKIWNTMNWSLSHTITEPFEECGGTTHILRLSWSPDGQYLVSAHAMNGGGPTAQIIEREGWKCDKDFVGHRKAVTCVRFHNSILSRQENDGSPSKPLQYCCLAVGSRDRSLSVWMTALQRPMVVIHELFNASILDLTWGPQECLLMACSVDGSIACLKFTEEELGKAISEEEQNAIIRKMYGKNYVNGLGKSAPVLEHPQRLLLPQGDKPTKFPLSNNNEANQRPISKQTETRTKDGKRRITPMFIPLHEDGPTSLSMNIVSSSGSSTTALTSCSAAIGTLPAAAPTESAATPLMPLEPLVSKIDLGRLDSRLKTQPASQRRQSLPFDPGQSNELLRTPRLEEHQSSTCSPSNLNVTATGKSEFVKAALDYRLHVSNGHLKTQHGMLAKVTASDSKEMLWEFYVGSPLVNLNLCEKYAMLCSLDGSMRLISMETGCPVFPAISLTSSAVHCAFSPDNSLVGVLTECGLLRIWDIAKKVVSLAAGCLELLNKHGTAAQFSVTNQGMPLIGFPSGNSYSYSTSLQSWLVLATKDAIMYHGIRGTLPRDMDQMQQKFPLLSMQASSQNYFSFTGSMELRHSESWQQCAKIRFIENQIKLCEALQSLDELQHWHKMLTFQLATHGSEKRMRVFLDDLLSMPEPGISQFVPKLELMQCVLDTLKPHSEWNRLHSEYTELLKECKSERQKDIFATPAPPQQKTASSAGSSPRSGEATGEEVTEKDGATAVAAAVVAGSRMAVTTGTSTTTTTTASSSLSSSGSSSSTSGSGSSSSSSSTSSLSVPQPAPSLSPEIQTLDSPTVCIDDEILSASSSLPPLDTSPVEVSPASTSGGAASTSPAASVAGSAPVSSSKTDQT


Columns and labels:
[1] = target: T1, Yemanuclein (Drosophila (endogenous in ovaries)); test: co-IP; ovary extracts of Hira-flag transgenic flies; IP with anti-YEM AS2 rabbit polyclonal or anti-Flag M2 monoclonal antibody on G-Sepharose beads; mock IP with rabbit pre-immune serum; Western blot of extract, flowthrough and IP fractions
HIRA-Flag (Drosophila) = target: T2, HIRA-Flag (Drosophila); test: as above

Row | binding [1] | binding (HIRA-Flag (Drosophila)) | Binder
1 | binds | – | HIRA-Flag (protein, UniProt O17468 1-1047) MRLLKPAWVHHDDKQIFSVDIHKDCTKFATGGQGSDCGRVVIWNLLPVLSDKAEFDADVPKMLCQMDQHLACVNCVRWSQNGQNLASGSDDKLIMIWRKSAGSSGVFGTGGMQKNHESWKCFYTLRGHDGDVLDLAWSPNDVYLASCSIDNTVIIWDAQAFPHSVATLKGHTGLVKGVSWDPLGRFLASQSDDRSIKIWNTMNWSLSHTITEPFEECGGTTHILRLSWSPDGQYLVSAHAMNGGGPTAQIIEREGWKCDKDFVGHRKAVTCVRFHNSILSRQENDGSPSKPLQYCCLAVGSRDRSLSVWMTALQRPMVVIHELFNASILDLTWGPQECLLMACSVDGSIACLKFTEEELGKAISEEEQNAIIRKMYGKNYVNGLGKSAPVLEHPQRLLLPQGDKPTKFPLSNNNEANQRPISKQTETRTKDGKRRITPMFIPLHEDGPTSLSMNIVSSSGSSTTALTSCSAAIGTLPAAAPTESAATPLMPLEPLVSKIDLGRLDSRLKTQPASQRRQSLPFDPGQSNELLRTPRLEEHQSSTCSPSNLNVTATGKSEFVKAALDYRLHVSNGHLKTQHGMLAKVTASDSKEMLWEFYVGSPLVNLNLCEKYAMLCSLDGSMRLISMETGCPVFPAISLTSSAVHCAFSPDNSLVGVLTECGLLRIWDIAKKVVSLAAGCLELLNKHGTAAQFSVTNQGMPLIGFPSGNSYSYSTSLQSWLVLATKDAIMYHGIRGTLPRDMDQMQQKFPLLSMQASSQNYFSFTGSMELRHSESWQQCAKIRFIENQIKLCEALQSLDELQHWHKMLTFQLATHGSEKRMRVFLDDLLSMPEPGISQFVPKLELMQCVLDTLKPHSEWNRLHSEYTELLKECKSERQKDIFATPAPPQQKTASSAGSSPRSGEATGEEVTEKDGATAVAAAVVAGSRMAVTTGTSTTTTTTASSSLSSSGSSSSTSGSGSSSSSSSTSSLSVPQPAPSLSPEIQTLDSPTVCIDDEILSASSSLPPLDTSPVEVSPASTSGGAASTSPAASVAGSAPVSSSKTDQT
2 | – | binds | Yemanuclein (protein, UniProt P25992 1-1002) MSKGGEHKRVTLTSIIQGDAGFSRFGSNILEPDAASAAPDNSSKPTTKTAKCIRIKLDLFETDSNKYPEFNYSRLLYLEKKKTKKLKQVSTTNGSASTDPFADNDDDVARIVKELEAKYGNSYATGRGKSKKDDYRDIGMGYDESDSFIDNTEAYDEIIPEEAETLEGGFYINCGALEFKNLTKKSYTTRTDAIIKMPERSRKRMVSSSSESSSSSSGDDDENDDGNNEEDDESDSEDDSEENDESDSEDDSESESLEDEDSAATAKSSSKYKDNHQAKRAKVIVTGKSKPSSSSLTSGKKPPTKPITTSSSSNSPRPSTVEISDTEDGQDPIQTQPSSQLQSLPQSQAQAQALKKVVKTTTVKDMLKAKRDSFLKSQSGTAAVKGVGNGELKCVSTDVSSSDSSDMESEHGRADRQAGQHGKDGQENLRTADTLLPTTLDADIVTAVNSFKEAVKSRDMCGKKFNLDVKLSPLLLRVYEAVLCTDRNERNMVFSHIEYQLQLPKYYMLRKGKQVRAKEEKRKSTIMLEKLRRAVAVVMPKAVANYETELRTFAEQAAADVNSELPPKMPRKKFQWTSELRHLLYDVYQARWTSYAFLAKRKESLEEFINWYLKEKVVELWPPGWMRLDELQREITRYKNAKLKAKEKPKAPPASASPKPVGVVSAPEQMPPASSYLKAVEDPRSRGNSDTDSATSASSNSLKRKLKEMPKQTSKPPKKKVAKQVPLQPQLTPHPQFQLAPAATAAVSIPAISNNNNHLPHLDTLLSMPSTSAQAAALNAAAVAAASTVLDLASPSRKIDLNTSNNFYNLITAASLAASGNPSPHSGDGQAKVIVGARPSPHVINLDDYQCTSDILQTSKQLAATTTVITAISKAAQTTSVARESSSESDGVEIVGVFPASKPQKKVQSKPKNKTQNRGRSSLGAVGQVNGSLGYSANNMYIYNSPRTLGPVYDLTDPHIMKTMSNLKEMEKQFIQAAFSPNSVKGASGGMGSSAPSTPTRQ
